Publication PMC7242444
Results are given in words; binding and its absence hold for the method and conditions named. In cells and extracts the contact can be indirect. These calls come from enrichment with a bait or labelling near it, and not all partners need be listed.

Chains of the proteins cited; added tags and fusions are not shown. Lines headed by an entry give the natural chain unless they say otherwise; changes in a name come on top. Residues count along the entry.
UniProt Q5VZL5: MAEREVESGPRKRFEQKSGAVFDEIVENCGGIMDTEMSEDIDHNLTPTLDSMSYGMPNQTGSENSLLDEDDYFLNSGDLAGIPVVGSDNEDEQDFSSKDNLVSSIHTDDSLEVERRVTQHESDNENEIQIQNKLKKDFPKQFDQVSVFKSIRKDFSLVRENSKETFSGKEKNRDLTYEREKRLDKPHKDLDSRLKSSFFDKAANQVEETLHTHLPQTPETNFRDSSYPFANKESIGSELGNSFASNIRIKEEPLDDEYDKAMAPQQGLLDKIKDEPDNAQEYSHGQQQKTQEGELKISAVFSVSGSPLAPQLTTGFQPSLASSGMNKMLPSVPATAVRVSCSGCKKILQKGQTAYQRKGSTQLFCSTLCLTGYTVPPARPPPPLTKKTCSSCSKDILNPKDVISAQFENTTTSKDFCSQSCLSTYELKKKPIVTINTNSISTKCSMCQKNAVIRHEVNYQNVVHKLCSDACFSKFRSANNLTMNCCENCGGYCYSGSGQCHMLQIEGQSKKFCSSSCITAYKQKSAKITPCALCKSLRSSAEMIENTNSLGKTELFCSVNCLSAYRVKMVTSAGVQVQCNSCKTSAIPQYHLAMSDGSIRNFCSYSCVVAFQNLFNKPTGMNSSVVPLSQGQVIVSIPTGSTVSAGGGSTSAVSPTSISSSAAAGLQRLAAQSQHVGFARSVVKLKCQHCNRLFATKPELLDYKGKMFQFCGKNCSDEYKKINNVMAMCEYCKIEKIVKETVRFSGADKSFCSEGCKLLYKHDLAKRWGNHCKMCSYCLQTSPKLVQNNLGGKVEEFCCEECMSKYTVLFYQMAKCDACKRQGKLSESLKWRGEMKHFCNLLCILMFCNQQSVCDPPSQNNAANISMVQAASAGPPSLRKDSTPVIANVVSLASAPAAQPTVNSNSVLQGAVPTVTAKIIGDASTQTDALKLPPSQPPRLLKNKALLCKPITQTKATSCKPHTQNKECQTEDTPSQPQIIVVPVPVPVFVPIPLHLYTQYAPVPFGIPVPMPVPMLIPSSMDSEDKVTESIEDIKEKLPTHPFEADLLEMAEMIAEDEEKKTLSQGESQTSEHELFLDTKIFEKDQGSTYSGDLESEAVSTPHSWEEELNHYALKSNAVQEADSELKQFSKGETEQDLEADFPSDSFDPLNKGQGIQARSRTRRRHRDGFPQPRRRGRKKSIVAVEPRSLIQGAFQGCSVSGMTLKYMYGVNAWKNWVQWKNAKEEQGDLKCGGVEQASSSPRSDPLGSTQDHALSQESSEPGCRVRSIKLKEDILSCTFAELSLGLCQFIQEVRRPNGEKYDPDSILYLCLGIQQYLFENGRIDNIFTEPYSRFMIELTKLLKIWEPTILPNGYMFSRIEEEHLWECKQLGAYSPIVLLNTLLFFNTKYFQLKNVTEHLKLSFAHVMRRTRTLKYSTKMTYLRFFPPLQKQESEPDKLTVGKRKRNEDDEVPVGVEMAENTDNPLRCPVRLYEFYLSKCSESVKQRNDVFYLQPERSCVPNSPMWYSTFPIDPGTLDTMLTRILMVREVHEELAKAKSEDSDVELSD
GFP-ZMYM4: residues 33-1548 of Q5VZL5
UniProt Q9UMX0: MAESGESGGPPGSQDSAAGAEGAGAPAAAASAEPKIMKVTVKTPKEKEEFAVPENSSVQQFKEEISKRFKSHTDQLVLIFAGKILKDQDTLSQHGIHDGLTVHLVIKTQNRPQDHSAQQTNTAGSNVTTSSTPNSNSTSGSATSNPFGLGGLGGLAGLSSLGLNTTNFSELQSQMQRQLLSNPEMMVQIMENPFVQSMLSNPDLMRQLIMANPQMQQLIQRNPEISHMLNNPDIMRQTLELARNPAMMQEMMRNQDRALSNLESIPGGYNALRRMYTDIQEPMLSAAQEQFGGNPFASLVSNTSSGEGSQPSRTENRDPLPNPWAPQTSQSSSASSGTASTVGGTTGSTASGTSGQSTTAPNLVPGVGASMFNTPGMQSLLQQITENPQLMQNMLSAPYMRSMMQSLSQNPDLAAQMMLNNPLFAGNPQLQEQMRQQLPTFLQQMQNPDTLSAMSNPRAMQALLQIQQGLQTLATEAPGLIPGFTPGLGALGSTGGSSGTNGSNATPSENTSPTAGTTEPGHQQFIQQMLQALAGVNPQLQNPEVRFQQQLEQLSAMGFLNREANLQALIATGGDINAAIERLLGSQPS
UniProt Q9UKL0: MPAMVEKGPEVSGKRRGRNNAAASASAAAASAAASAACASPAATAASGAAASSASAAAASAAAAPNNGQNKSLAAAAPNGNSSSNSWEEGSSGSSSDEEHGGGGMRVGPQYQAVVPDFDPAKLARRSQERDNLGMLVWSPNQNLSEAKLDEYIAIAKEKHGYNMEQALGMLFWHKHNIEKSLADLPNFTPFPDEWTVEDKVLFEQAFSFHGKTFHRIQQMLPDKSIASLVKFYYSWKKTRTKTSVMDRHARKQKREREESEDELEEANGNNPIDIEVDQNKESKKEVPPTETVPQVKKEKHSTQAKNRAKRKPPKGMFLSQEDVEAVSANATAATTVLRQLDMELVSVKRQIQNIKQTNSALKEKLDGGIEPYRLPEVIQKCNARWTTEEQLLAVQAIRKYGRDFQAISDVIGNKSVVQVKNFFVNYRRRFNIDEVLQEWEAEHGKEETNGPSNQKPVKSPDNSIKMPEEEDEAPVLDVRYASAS
UniProt Q9NRR5: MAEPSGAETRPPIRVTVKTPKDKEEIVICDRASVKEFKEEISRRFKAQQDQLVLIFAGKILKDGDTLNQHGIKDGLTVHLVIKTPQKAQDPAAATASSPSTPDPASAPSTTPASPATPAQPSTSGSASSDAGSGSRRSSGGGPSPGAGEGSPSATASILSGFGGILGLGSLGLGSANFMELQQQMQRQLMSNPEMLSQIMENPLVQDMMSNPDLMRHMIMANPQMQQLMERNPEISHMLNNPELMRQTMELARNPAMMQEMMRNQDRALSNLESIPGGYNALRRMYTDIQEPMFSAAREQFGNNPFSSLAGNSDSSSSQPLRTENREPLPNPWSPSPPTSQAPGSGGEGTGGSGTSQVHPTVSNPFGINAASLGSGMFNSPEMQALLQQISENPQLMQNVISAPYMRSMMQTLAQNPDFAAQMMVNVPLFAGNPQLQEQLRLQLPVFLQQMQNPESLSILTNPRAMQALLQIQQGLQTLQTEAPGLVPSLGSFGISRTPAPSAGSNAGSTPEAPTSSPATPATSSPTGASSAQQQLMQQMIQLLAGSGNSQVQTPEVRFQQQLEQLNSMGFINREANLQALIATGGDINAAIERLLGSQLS
UniProt P10244: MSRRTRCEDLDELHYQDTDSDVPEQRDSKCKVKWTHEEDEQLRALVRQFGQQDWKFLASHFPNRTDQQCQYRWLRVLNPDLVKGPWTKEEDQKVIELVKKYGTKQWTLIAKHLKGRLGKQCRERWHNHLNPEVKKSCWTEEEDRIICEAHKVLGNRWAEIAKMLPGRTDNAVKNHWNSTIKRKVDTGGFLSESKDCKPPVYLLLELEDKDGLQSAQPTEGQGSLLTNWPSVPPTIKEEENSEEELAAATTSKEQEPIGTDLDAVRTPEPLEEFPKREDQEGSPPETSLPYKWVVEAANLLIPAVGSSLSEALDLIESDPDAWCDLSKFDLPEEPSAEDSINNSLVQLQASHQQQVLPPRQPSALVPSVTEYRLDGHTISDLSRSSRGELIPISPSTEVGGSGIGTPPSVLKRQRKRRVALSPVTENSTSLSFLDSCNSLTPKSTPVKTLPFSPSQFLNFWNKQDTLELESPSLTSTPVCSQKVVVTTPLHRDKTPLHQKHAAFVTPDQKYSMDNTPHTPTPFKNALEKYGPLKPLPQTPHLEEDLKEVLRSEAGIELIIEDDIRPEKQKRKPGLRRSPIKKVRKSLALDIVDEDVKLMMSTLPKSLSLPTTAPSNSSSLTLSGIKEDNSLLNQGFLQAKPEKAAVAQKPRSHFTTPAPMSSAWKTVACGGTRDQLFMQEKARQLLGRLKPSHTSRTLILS
UniProt Q6MZP7: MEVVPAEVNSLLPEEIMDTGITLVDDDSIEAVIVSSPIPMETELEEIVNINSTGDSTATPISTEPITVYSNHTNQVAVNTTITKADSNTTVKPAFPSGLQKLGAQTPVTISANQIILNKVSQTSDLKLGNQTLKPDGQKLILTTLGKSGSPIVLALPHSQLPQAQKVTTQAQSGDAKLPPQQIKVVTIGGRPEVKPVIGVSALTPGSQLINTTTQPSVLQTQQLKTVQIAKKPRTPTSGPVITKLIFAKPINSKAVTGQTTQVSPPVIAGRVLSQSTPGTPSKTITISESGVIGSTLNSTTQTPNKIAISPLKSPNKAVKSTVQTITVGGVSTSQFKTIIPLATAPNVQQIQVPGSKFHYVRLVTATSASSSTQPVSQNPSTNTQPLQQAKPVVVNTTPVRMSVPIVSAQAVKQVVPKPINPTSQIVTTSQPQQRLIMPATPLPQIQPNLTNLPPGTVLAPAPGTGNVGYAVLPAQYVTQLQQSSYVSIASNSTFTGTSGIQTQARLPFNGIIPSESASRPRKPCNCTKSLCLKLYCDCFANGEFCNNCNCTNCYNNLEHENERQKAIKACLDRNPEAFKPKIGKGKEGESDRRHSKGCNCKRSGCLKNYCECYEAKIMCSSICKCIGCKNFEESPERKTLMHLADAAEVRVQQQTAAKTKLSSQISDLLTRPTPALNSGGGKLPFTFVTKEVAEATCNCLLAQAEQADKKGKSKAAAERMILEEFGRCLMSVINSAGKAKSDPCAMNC

molecular target: GFP-ZMYM4 (human) (UniProt Q5VZL5); test: affinity purification with mass spectrometry; extracts (ELB buffer, 120 mM NaCl, 0.2% NP-40) of HEK293T cells stably expressing the GFP fusion bait bound to magnetic GFP-trap beads; on-bead trypsin digestion, LC-MS/MS; cells expressing only GFP as control; three independent experiments

binding	Substance
binds	PRR12, endogenous (from UniProt Q9ULL5 1-2036)
binds	UBQLIN1, endogenous (from UniProt Q9UMX0 1-589)

The next lines start with the substance.

Substance	binding
RCOR1, endogenous (from UniProt Q9UKL0 1-485)	binds
UBQLN4, endogenous (from UniProt Q9NRR5 1-601)	binds

molecular target: GFP-B-MYB (human) (UniProt P10244); test: as above

binding	Substance
binds	LIN54, endogenous (from UniProt Q6MZP7 1-749)
binds	zinc finger MYM-type protein 4 (ZMYM4), endogenous (from UniProt Q5VZL5 1-1548)
